Reference: publication PMC13144348
No constants are given. Whether binding was seen depends on the method and setting. Binding seen in cells or lysates may run through a third protein. These calls come from enrichment with a bait or labelling near it, and not all partners need be listed. Where a sequence is shown, tags or fusion partners need not be part of it.

Biological target: T1, Ste4-GFP (endogenous) (S. pombe) (UniProt P36622)
T1 sequence: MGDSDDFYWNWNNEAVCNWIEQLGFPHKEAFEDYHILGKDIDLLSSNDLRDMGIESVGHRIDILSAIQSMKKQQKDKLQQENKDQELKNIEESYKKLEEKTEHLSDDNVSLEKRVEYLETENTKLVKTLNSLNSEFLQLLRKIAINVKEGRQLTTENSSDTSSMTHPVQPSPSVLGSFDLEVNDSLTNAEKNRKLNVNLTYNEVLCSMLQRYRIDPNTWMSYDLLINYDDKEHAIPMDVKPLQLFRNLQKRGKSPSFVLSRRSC
Assay: affinity purification with mass spectrometry; endogenous Ste4-GFP, or GFP as negative control, immunoprecipitated from mating cell lysates; bead eluate analysed by mass spectrometry; three co-immunoprecipitations

binding: binds
B1: MAP3K^Byr2 (endogenous) (protein, UniProt P28829 1-659)
chain: MEYYTSKEVAEWLKSIGLEKYIEQFSQNNIEGRHLNHLTLPLLKDLGIENTAKGKQFLKQRDYLREFPRPCILRFIACNGQTRAVQSRGDYQKTLAIALKKFSLEDASKFIVCVSQSSRIKLITEEEFKQICFNSSSPERDRLIIVPKEKPCPSFEDLRRSWEIELAQPAALSSQSSLSPKLSSVLPTSTQKRSVRSNNAKPFESYQRPPSELINSRISDFFPDHQPKLLEKTISNSLRRNLSIRTSQGHNLGNFGQEILPRSSRRARPSELVCPLSSLRISVAEDVNRLPRIDRGFDPPLTVSSTQRISRPPSLQKSITMVGVEPLYQSNGNEKSSKYNVFSESAHGNHQVLSFSPGSSPSFIEQPSPISPTSTTSEDTNTLEEDTDDQSIKWIRGALIGSGSFGQVYLGMNASSGELMAVKQVILDSVSESKDRHAKLLDALAGEIALLQELSHEHIVQYLGSNLNSDHLNIFLEYVPGGSVAGLLTMYGSFEETLVKNFIKQTLKGLEYLHSRGIVHRDIKGANILVDNKGKIKISDFGISKKLELNSTSTKTGGARPSFQGSSFWMAPEVVKQTMHTEKTDIWSLGCLVIEMLTSKHPYPNCDQMQAIFRIGENILPEFPSNISSSAIDFLEKTFAIDCNLRPTASELLSHPFVS
